According to PubChem BioAssay AID220 (DTP/NCI, 2004):
The list does not hold the whole screen: it is rich in T/C values a quarter to a half above the control, in often repeated tests (any T/C) and in doses without a T/C. Other doses and runs of a compound stand elsewhere. T/C is the treated group as % of the vehicle group. Schedule codes are those of the source, read here as Q, the interval in days (D) or hours (H), X, the number of doses. Some values lie below zero, which means that the treated tumours became smaller. Some entries hold several experiments; the results are listed from low to high. Some T/C values carry the count of animals alive at the toxicity check (mostly the fifth day); without a count, all were alive then. Some doses have a count of surviving animals in place of a T/C: the source holds a T/C of zero for them, seemingly a mark for toxic or unscored doses. Counts of survivors are from the toxicity check (mostly the fifth day) where no day follows; animals may have died later.

System: CD8F1 mice, subcutaneous mammary adenocarcinoma, T/C%
Test: NCI In Vivo Anticancer Drug Screen. Data for tumor model Mammary Adenocarcinoma CD8F1 (subcutaneous) in CD8F1
Conditions: higher T/C = larger tumour
Summary of the method: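 Tumor-bearing mice, transplantable model; readout survival or tumor size; value = treated (T) / vehicle control (C).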

[1] = T/C endpoint: median tumor weight change, dose: 500.0 mg/kg/injection, schedule: Q01DX001 (ip), vehicle: Klucel (hydroxypropylcellulose) (HPC)
[2] = T/C endpoint: median tumor weight change, dose: 1000.0 mg/kg/injection, schedule: Q01DX001 (ip), vehicle: saline
[3] = T/C endpoint: median tumor weight change, dose: 2000.0 mg/kg/injection, schedule: Q01DX001 (ip), vehicle: saline
[4] = T/C endpoint: median tumor weight (est.), dose: 40.0 mg/kg/injection, schedule: Q07DX005 (ip), vehicle: Klucel (hydroxypropylcellulose) (HPC)
[5] = T/C endpoint: median tumor weight (est.), dose: 80.0 mg/kg/injection, schedule: Q07DX005 (ip), vehicle: Klucel (hydroxypropylcellulose) (HPC)

O=c1[nH]cc(F)c(=O)[nH]1
T/C (T/C endpoint: mean tumor weight, dose: 20.0 mg/kg/injection, schedule: Q01DX009 (ip), vehicle: saline, evaluated on day 51): 139 % of control | survivor count (T/C endpoint: median tumor weight (est.), dose: 100.0 mg/kg/injection, schedule: Q07DX005 (ip), vehicle: saline): 5 of 10 | T/C (T/C endpoint: median tumor weight change, dose: 89.0 mg/kg/injection, schedule: Q01DX001 (ip), vehicle: saline, evaluated on day 29): 13 % of control | T/C (T/C endpoint: median tumor weight change, dose: 89.0 mg/kg/injection, schedule: Q01DX001 (ip), vehicle: saline, evaluated on day 30): 27 % of control | T/C (T/C endpoint: median tumor weight change, dose: 89.0 mg/kg/injection, schedule: Q01DX001 (ip), vehicle: saline, evaluated on day 33): -38 and 12 % of control | T/C (T/C endpoint: median tumor weight change, dose: 133.0 mg/kg/injection, schedule: Q01DX001 (ip), vehicle: saline, evaluated on day 29): 8 % of control | T/C (T/C endpoint: median tumor weight change, dose: 133.0 mg/kg/injection, schedule: Q01DX001 (ip), vehicle: saline, evaluated on day 30): 17 % of control [9 of 10 alive on day 27] | T/C (T/C endpoint: median tumor weight change, dose: 133.0 mg/kg/injection, schedule: Q01DX001 (ip), vehicle: saline, evaluated on day 32): 3 % of control | T/C (T/C endpoint: median tumor weight change, dose: 133.0 mg/kg/injection, schedule: Q01DX001 (ip), vehicle: saline, evaluated on day 33): -39 % of control | T/C (T/C endpoint: median tumor weight change, dose: 133.0 mg/kg/injection, schedule: Q01DX001 (ip), vehicle: saline, evaluated on day 34): 26 % of control | survivor count (T/C endpoint: median tumor weight change, dose: 133.0 mg/kg/injection, schedule: Q01DX001 (ip), vehicle: saline): 6 of 10 on day 30 | T/C (T/C endpoint: median tumor weight change, dose: 200.0 mg/kg/injection, schedule: Q01DX001 (ip), vehicle: saline, evaluated on day 29): 6 % of control | T/C (T/C endpoint: median tumor weight change, dose: 200.0 mg/kg/injection, schedule: Q01DX001 (ip), vehicle: saline, evaluated on day 30): -12 % of control [8 of 10 alive on day 27] | T/C (T/C endpoint: median tumor weight change, dose: 200.0 mg/kg/injection, schedule: Q01DX001 (ip), vehicle: saline, evaluated on day 32): -7 % of control | T/C (T/C endpoint: median tumor weight change, dose: 200.0 mg/kg/injection, schedule: Q01DX001 (ip), vehicle: saline, evaluated on day 33): -80 and -62 % of control | T/C (T/C endpoint: median tumor weight change, dose: 200.0 mg/kg/injection, schedule: Q01DX001 (ip), vehicle: saline, evaluated on day 34): -25 % of control [7 of 10 alive on day 34] | survivor count (T/C endpoint: median tumor weight change, dose: 200.0 mg/kg/injection, schedule: Q01DX001 (ip), vehicle: saline): 6 of 10 on day 28 | T/C (T/C endpoint: median tumor weight change, dose: 270.0 mg/kg/injection, schedule: Q01DX001 (ip), vehicle: saline, evaluated on day 29): -21 % of control | T/C (T/C endpoint: median tumor weight change, dose: 270.0 mg/kg/injection, schedule: Q01DX001 (ip), vehicle: saline, evaluated on day 32): -43 % of control [6 of 9 alive on day 32] | T/C (T/C endpoint: median tumor weight change, dose: 270.0 mg/kg/injection, schedule: Q01DX001 (ip), vehicle: saline, evaluated on day 33): -77 % of control [8 of 10 alive on day 30] | T/C (T/C endpoint: median tumor weight change, dose: 270.0 mg/kg/injection, schedule: Q01DX001 (ip), vehicle: saline, evaluated on day 34): 5 % of control [8 of 10 alive on day 34] | survivor count (T/C endpoint: median tumor weight change, dose: 270.0 mg/kg/injection, schedule: Q01DX001 (ip), vehicle: saline): 2 of 10 on day 27 and 5 of 10 on day 30 | survivor count (T/C endpoint: median tumor weight change, dose: 400.0 mg/kg/injection, schedule: Q01DX001 (ip), vehicle: saline): 2 of 10 on day 28

C/C=C(\C)c1cc(=O)c2c(C)cc3c(c2o1)C(=O)c1c(O)c(C2CC(C)(N(C)C)C(O)C(C)O2)cc(C2CC(N(C)C)C(O)C(C)O2)c1C3=O (stereo not given)
T/C (T/C endpoint: median tumor weight change, dose: 0.62 mg/kg/injection, schedule: Q01DX001 (ip), vehicle: saline, evaluated on day 32): 142 % of control | survivor count (T/C endpoint: median tumor weight change, dose: 10.0 mg/kg/injection, schedule: Q01DX001 (ip), vehicle: saline): 3 of 10 on day 28 | survivor count (T/C endpoint: median tumor weight change, dose: 10.0 mg/kg/injection, schedule: Q01DX001 (ip), vehicle: suspension in saline): 0 of 10 on day 28 | survivor count (T/C endpoint: median tumor weight change, dose: 20.0 mg/kg/injection, schedule: Q01DX001 (ip), vehicle: saline): 0 of 10 on day 32 and 4 of 10 on day 28 | survivor count (T/C endpoint: median tumor weight change, dose: 20.0 mg/kg/injection, schedule: Q01DX001 (ip), vehicle: suspension in saline): 0 of 10 on day 28

COc1cc(C)c2c(c1C=O)Oc1c(c(C)c(O)c3c1C(O)OC3=O)OC2=O (stereo not given)
T/C (T/C endpoint: mean tumor weight, dose: 12.5 mg/kg/injection, schedule: Q07DX005 (ip), vehicle: saline, evaluated on day 42): 146 % of control | T/C (T/C endpoint: median tumor weight (est.), dose: 12.5 mg/kg/injection, schedule: Q07DX005 (ip), vehicle: saline, evaluated on day 33): 134 % of control

O=C(NC1CCCCC1)OCc1c(COC(=O)NC2CCCCC2)c(-c2ccc(Cl)c(Cl)c2)n2c1CCC2
survivor count (T/C endpoint: median tumor weight (est.), dose: 400.0 mg/kg/injection, schedule: Q07DX005 (ip), vehicle: saline with Tween-80): 5 of 10 on day 30 | survivor count (T/C endpoint: median tumor weight (est.), dose: 800.0 mg/kg/injection, schedule: Q07DX005 (ip), vehicle: saline with Tween-80): 3 of 10 on day 30

CCCCCNc1ncnc2c(C)[nH]nc12
survivor count [1]: 1 of 10 on day 27 | survivor count (T/C endpoint: median tumor weight change, dose: 1000.0 mg/kg/injection, schedule: Q01DX001 (ip), vehicle: Klucel (hydroxypropylcellulose) (HPC)): 0 of 10 on day 27

Cc1ccc(N)c(N)c1
survivor count (T/C endpoint: median tumor weight change, dose: 1000.0 mg/kg/injection, schedule: Q01DX001 (ip), vehicle: saline with Tween-80): 4 of 10 on day 39 | survivor count (T/C endpoint: median tumor weight change, dose: 2000.0 mg/kg/injection, schedule: Q01DX001 (ip), vehicle: saline with Tween-80): 0 of 10 on day 39

CCCC(=O)O.CCCC(=O)O.CCCC(=O)O.CCCC(=O)O.[Rh].[Rh]
T/C (T/C endpoint: median tumor weight change, dose: 0.62 mg/kg/injection, schedule: Q01DX001 (ip), vehicle: saline + alcohol, evaluated on day 29): 128 % of control | survivor count (T/C endpoint: median tumor weight change, dose: 2.5 mg/kg/injection, schedule: Q01DX001 (ip), vehicle: saline + alcohol): 5 of 10 on day 29 | survivor count (T/C endpoint: median tumor weight change, dose: 5.0 mg/kg/injection, schedule: Q01DX001 (ip), vehicle: saline + alcohol): 0 of 10 on day 29

COC(=O)C12OCC34C(CC5C(C)=CC(=O)C(O)C5(C)C3C(O)C1O)OC(=O)C(OC(=O)CC(C)C)C24 (stereo not given)
survivor count (T/C endpoint: median tumor weight (est.), dose: 0.5 mg/kg/injection, schedule: Q07DX005 (ip), vehicle: saline + alcohol): 1 of 10 on day 30 | survivor count (T/C endpoint: median tumor weight (est.), dose: 1.0 mg/kg/injection, schedule: Q07DX005 (ip), vehicle: saline + alcohol): 6 of 10 on day 30 | survivor count (T/C endpoint: median tumor weight (est.), dose: 2.0 mg/kg/injection, schedule: Q07DX005 (ip), vehicle: saline + alcohol): 4 of 10 on day 30 | survivor count (T/C endpoint: median tumor weight (est.), dose: 4.0 mg/kg/injection, schedule: Q07DX005 (ip), vehicle: saline + alcohol): 2 of 10 on day 30 and 6 of 10 on day 30 | survivor count (T/C endpoint: median tumor weight (est.), dose: 8.0 mg/kg/injection, schedule: Q07DX005 (ip), vehicle: saline + alcohol): 1 of 10 on day 30

COc1ccc(Cl)[n+]([O-])n1
survivor count (T/C endpoint: median tumor weight change, dose: 125.0 mg/kg/injection, schedule: Q01DX001 (ip), vehicle: Klucel (hydroxypropylcellulose) (HPC)): 4 of 10 on day 33 | survivor count (T/C endpoint: median tumor weight change, dose: 250.0 mg/kg/injection, schedule: Q01DX001 (ip), vehicle: Klucel (hydroxypropylcellulose) (HPC)): 0 of 10 on day 33 and 0 of 10 on day 34 | survivor count [1]: 0 of 10 on day 33 and 0 of 10 on day 34

CCCCCCCCCCCCCCC/C([O-])=N/[N+](C)(C)CC(C)O (stereo not given)
survivor count [2]: 4 of 10 on day 25 | survivor count [3]: 1 of 10 on day 25

CC1CN1C(=O)NCCCCCCNC(=O)N1CC1C (stereo not given)
survivor count [4]: 0 of 10 on day 30 | survivor count [5]: 0 of 10 on day 30

Cc1[nH]c(=O)[nH]c(=O)c1N(CCF)CCCl
survivor count [4]: 5 of 9 on day 30 | survivor count [5]: 0 of 9 on day 30 | survivor count (T/C endpoint: median tumor weight change, dose: 100.0 mg/kg/injection, schedule: Q01DX001 (ip), vehicle: Klucel (hydroxypropylcellulose) (HPC)): 1 of 10 on day 28 and 5 of 10 on day 30 | survivor count (T/C endpoint: median tumor weight change, dose: 200.0 mg/kg/injection, schedule: Q01DX001 (ip), vehicle: Klucel (hydroxypropylcellulose) (HPC)): 0 of 10 on day 28, 0 of 10 on day 30, 1 of 10 on day 28 | survivor count (T/C endpoint: median tumor weight change, dose: 400.0 mg/kg/injection, schedule: Q01DX001 (ip), vehicle: Klucel (hydroxypropylcellulose) (HPC)): 0 of 10 on day 30

O=C1C2(Cl)C3(Cl)C4(Cl)C(Cl)(Cl)C5(Cl)[C@]3(Cl)C1(Cl)[C@]5(Cl)C24Cl (stereo not given in full)
T/C (T/C endpoint: median tumor weight (est.), dose: 6.25 mg/kg/injection, schedule: Q07DX005 (ip), vehicle: Klucel (hydroxypropylcellulose) (HPC), evaluated on day 30): 125 % of control

N=C1CCCS1
survivor count (T/C endpoint: median tumor weight change, dose: 500.0 mg/kg/injection, schedule: Q01DX001 (ip), vehicle: saline): 0 of 10 on day 28 | survivor count [2]: 0 of 10 on day 28 | survivor count [3]: 0 of 10 on day 28
